In paper PMC7295765:
Results are given in words; binding and its absence hold for the method and conditions named. Binding seen in cells or lysates may run through a third protein. Binding calls can cover weak binding; strength is not graded here.

Molecular target: Integrin α6 (human (endogenous in T4121 and T387 GSCs))
Experiment: co-IP; lysates of T4121 or T387 GSCs transduced with WISP1 overexpression lentivirus; IP lysis buffer (50 mM Tris-HCl pH 7.8, 137 mM NaCl, 1 mM EDTA, 1% Triton X-100, 10% glycerol); IP with anti-Integrin α6 or anti-Integrin β1 antibody or isotype IgG overnight at 4 °C, protein A/G Plus agarose; immunoblot with anti-WISP1, anti-Integrin α6 and anti-Integrin β1

B1: Wnt-induced signaling protein 1 (WISP1) (ligand, UniProt O95388 23-367)
chain: TALSPAPTTMDFTPAPLEDTSSRPQFCKWPCECPPSPPRCPLGVSLITDGCECCKMCAQQLGDNCTEAAICDPHRGLYCDYSGDRPRYAIGVCAQVVGVGCVLDGVRYNNGQSFQPNCKYNCTCIDGAVGCTPLCLRVRPPRLWCPHPRRVSIPGHCCEQWVCEDDAKRPRKTAPRDTGAFDAVGEVEAWHRNCIAYTSPWSPCSTSCGLGVSTRISNVNAQCWPEQESRLCNLRPCDVDIHTLIKAGKKCLAVYQPEASMNFTLAGCISTRSYQPKYCGVCMDNRCCIPYKSKTIDVSFQCPDGLGFSRQVLWINACFCNLSCRNPNDIFADLESYPDFSEIAN
With B1 the binding was “binds”.
